Results on 22 targets are retold here after the supplement of paper PMC12067093, “Discovery and optimisation of a covalent ligand for TRIM25 and its application to targeted protein ubiquitination” (Chemical Science, 2025).

Amino acid sequences for entries named in this document (tags omitted). A change or cut given only in a name is not applied to a line headed by its entry.
UniProt P50552: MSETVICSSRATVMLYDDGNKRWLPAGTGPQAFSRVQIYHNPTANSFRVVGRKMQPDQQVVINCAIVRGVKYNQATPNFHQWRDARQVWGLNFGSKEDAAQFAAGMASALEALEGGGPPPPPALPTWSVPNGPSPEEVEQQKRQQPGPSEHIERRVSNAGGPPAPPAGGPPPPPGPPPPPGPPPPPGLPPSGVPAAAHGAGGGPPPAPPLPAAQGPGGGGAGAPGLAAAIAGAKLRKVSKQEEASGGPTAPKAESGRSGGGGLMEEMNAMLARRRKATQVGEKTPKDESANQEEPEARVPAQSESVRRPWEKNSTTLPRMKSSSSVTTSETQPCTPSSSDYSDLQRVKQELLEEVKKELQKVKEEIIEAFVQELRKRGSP
UniProt P15498: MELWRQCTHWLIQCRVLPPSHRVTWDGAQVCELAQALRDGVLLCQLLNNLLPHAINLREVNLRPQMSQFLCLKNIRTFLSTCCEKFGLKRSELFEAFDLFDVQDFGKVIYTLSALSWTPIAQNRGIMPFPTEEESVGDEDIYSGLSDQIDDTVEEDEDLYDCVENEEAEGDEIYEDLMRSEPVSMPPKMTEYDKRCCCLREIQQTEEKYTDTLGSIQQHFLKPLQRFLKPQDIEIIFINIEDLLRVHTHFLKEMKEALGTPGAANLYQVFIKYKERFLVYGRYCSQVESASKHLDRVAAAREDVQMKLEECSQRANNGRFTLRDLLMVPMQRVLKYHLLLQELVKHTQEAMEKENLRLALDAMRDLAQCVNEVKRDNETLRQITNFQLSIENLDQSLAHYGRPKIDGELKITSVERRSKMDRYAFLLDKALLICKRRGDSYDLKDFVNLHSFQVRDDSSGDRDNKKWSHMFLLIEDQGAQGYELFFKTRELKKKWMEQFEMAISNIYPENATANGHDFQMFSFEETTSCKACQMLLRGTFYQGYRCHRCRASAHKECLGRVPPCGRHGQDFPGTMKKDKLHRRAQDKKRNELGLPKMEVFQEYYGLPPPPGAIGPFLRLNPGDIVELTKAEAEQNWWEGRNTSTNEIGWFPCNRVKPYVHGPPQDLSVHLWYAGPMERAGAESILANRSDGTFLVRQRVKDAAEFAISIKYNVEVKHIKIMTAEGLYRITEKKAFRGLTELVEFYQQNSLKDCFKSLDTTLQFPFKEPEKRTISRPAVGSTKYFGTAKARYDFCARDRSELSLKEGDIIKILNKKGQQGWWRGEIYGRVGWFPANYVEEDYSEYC
UniProt Q5VIR6: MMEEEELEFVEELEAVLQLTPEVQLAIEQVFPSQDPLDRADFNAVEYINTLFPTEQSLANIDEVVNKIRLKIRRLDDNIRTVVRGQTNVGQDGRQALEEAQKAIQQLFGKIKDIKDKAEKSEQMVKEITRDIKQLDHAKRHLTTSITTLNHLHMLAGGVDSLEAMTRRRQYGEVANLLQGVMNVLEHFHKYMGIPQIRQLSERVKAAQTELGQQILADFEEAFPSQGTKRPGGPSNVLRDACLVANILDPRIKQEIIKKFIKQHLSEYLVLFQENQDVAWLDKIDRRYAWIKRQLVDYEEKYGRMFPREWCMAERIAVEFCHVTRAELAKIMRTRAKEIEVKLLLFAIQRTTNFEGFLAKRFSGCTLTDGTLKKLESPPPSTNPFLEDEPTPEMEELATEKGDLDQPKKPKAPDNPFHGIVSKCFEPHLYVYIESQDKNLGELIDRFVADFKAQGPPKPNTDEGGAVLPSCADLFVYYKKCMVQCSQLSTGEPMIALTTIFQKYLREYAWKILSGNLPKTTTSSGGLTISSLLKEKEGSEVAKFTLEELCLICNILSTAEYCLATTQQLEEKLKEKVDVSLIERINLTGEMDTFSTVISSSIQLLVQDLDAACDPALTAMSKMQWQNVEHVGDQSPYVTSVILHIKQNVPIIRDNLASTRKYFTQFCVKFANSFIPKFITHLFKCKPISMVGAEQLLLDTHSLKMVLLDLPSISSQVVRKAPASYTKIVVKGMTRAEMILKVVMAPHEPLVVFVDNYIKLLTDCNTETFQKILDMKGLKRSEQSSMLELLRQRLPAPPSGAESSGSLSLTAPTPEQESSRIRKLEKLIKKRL
UniProt Q9Y6W5, whole entry: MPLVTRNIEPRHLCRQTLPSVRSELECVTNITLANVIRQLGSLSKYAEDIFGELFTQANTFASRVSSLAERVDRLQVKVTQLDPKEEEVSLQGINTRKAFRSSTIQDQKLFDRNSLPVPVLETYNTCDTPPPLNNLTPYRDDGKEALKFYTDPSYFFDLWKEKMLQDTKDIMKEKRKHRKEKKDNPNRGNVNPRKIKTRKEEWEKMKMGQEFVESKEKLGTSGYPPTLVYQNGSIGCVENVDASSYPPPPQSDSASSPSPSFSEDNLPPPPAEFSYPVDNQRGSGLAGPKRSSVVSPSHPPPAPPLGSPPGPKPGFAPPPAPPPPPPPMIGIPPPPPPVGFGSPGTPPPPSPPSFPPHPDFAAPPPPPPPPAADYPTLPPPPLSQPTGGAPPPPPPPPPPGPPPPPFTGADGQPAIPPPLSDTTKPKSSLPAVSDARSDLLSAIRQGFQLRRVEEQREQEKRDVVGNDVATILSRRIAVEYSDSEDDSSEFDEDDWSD
UniProt P26640: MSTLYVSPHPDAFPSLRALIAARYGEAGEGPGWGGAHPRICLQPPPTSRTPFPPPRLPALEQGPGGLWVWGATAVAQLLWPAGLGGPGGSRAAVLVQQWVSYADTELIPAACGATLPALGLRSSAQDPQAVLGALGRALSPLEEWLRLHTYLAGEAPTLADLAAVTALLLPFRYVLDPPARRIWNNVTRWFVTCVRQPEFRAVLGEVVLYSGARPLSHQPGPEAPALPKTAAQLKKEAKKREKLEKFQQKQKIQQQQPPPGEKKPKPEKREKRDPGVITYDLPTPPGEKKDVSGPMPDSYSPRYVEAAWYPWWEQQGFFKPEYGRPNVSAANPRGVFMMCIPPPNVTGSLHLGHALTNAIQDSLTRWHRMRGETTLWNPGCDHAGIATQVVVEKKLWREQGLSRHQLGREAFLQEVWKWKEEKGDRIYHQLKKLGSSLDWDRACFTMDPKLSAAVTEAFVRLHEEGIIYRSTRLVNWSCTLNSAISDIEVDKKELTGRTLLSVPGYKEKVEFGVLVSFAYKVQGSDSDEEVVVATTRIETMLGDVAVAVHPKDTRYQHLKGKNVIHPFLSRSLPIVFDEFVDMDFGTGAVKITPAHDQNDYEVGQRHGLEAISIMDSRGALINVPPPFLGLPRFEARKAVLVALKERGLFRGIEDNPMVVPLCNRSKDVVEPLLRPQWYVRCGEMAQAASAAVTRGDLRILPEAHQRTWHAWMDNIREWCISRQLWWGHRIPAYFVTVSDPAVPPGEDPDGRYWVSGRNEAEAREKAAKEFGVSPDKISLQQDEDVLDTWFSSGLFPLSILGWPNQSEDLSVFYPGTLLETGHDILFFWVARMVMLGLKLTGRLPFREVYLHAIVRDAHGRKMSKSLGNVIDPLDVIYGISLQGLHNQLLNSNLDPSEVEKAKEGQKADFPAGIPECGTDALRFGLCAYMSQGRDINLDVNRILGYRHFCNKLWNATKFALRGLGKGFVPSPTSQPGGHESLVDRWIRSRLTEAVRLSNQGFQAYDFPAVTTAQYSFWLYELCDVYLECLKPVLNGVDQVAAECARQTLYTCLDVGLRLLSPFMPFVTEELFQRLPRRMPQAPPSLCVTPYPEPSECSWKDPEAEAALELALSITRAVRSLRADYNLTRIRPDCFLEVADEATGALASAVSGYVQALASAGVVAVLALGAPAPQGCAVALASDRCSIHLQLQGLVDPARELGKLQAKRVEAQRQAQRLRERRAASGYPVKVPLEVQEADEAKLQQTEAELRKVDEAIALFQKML
UniProt O00507: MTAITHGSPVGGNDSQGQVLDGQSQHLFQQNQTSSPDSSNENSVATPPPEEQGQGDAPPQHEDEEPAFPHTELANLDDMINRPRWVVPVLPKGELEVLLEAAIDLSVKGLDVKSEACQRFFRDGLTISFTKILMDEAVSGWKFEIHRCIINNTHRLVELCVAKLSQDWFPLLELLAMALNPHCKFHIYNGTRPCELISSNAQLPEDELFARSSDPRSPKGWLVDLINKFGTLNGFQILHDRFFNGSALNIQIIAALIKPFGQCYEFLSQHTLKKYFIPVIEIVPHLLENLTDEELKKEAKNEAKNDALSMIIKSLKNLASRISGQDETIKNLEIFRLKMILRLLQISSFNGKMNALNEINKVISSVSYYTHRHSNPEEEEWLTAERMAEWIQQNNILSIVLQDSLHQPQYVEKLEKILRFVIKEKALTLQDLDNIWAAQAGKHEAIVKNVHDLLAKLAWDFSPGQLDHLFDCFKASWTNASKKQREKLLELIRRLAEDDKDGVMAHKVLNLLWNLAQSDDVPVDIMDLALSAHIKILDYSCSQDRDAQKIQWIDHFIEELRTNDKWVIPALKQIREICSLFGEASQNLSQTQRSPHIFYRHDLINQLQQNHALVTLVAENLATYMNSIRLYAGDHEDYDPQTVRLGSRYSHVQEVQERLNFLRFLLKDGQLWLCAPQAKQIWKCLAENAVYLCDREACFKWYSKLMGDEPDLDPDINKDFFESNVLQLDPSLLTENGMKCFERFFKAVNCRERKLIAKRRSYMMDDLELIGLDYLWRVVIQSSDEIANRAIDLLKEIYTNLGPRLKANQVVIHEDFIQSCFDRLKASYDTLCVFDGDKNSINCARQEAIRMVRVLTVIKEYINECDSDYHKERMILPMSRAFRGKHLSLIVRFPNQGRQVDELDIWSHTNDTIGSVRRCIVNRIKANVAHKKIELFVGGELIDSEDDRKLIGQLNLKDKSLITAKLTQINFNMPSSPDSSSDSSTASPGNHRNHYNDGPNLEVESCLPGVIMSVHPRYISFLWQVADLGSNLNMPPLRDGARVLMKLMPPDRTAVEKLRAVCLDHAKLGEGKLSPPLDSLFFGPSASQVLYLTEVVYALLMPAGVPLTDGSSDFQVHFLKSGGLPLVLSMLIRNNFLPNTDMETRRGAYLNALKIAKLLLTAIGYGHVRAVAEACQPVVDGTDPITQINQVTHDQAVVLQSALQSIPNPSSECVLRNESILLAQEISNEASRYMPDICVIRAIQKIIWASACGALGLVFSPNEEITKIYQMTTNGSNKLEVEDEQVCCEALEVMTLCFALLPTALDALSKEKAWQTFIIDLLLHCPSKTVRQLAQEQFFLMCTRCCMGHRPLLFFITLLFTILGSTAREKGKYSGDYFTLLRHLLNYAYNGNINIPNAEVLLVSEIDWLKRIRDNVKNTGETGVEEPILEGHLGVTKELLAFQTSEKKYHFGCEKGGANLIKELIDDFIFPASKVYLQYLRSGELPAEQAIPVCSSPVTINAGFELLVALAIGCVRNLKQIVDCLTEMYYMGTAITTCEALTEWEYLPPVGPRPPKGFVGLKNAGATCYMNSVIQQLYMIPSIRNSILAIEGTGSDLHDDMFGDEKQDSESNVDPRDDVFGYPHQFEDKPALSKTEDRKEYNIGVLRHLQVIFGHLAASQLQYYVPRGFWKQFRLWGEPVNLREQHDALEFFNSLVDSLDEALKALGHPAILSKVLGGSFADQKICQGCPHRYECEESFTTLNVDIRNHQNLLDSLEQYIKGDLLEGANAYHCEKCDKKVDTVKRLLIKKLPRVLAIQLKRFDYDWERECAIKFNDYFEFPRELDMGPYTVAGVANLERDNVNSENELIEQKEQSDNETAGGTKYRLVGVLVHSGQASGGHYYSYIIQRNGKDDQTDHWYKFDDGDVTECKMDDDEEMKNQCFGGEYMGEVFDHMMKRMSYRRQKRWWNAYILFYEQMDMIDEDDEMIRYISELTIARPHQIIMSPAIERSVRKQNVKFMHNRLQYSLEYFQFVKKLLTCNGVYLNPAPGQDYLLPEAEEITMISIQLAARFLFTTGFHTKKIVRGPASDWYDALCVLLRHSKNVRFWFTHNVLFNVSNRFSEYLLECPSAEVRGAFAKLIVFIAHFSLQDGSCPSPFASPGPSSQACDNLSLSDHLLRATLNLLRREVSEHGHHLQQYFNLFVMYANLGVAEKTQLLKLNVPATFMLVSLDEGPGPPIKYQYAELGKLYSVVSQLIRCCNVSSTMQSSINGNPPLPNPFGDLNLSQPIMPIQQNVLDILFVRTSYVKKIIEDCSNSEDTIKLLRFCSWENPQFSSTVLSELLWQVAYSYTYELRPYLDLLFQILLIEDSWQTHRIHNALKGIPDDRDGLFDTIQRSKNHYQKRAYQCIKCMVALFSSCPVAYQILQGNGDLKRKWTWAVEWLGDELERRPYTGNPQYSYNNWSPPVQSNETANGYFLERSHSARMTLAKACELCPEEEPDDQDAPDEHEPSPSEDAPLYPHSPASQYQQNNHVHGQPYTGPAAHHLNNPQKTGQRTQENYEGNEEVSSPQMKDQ

Compound in the test: Cc1cc(ccc1-c1ccccc1)C(=O)N1CCCN(CC1)C(=O)CCl [compound 10]
In words: probe-labelled cysteine peptide fold change vs DMSO (competition) (log2 fold change); higher = less target engagement (more negative = stronger competition). As to conditions: THP-1, incubation time: 4 h.

Some of the results follow.
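Further: competitive profiling in live THP-1 cells: cysteine peptides tagged with an iodoacetamide desthiobiotin (IA-DTB) probe, intensity after compound treatment relative to DMSO-treated cells.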

With “VPS33B_Q9H267_82_VENKPALSSNEQLCFLVRPR (UniProt Q9H267)”, the “probe-labelled cysteine peptide fold change” value (10 µM) amounted to 0.0977 and the “probe-labelled cysteine peptide fold change” value (50 µM) is 0.0279.
For the target “VAC14_Q08AM6_79_KGGLIGLAACSIALGK (UniProt Q08AM6)”, the “probe-labelled cysteine peptide fold change” value amounted to 0.0198 (10 µM) and 0.163 (50 µM).
For “VASP_P50552_64_MQPDQQVVINCAIVR (UniProt P50552)”, in that order: 0.0559 and 0.166.
Take “VPS41_P49754_102_INQISLDESGEHMGVCSEDGK (UniProt P49754)”: the “probe-labelled cysteine peptide fold change” value by setting is: (10 µM) 0.0123; (50 µM) 0.229.
The matching figures for “VPS13A_Q96RL7_1608_ACPFLPVK (UniProt Q96RL7)”: -0.178 and -0.0723.
Consider “VAV1_P15498_31_VTWDGAQVCELAQALR (UniProt P15498)”, for which the “probe-labelled cysteine peptide fold change” value by setting is: (10 µM) -0.361; (50 µM) 0.203.
“VPS53_Q5VIR6_321_IAVEFCHVTR (UniProt Q5VIR6)”: the “probe-labelled cysteine peptide fold change” value (10 µM) stood at 0.0427 and the “probe-labelled cysteine peptide fold change” value (50 µM) is 0.134.
For “UXS1_Q8NBZ7_242_VAETMCYAYMK (UniProt Q8NBZ7)”, in that order: -0.0516 and -0.0372.
The matching figures for “WASF2_Q9Y6W5_27_SELECVTNITLANVIR (UniProt Q9Y6W5)”: -0.0434 and 0.208.
The matching figures for “VARS_P26640_194_WFVTCVR (UniProt P26640)”: -0.398 and 0.162.
Regarding “VPS35_Q96QK1_137_DLVEMCR (UniProt Q96QK1)”, the “probe-labelled cysteine peptide fold change” value turned out to be 0.0809 (10 µM) and 0.00884 (50 µM).
For the target “VCL_P18206_422_IAELCDDPKERDDILR (UniProt P18206)”, the “probe-labelled cysteine peptide fold change” value was 0.179 (10 µM) and -0.0967 (50 µM).
As to “VPS26B_Q4G0F5_334_TPSQLSDNNCRQ (UniProt Q4G0F5)”, the “probe-labelled cysteine peptide fold change” value runs as follows: (10 µM) -0.205; (50 µM) -0.321.
As to “VAPA_Q9P0L0_128_CVFEMPNENDK (UniProt Q9P0L0)”, the “probe-labelled cysteine peptide fold change” value reads like this: (10 µM) -0.217; (50 µM) -0.121.
As for “WASHC4_Q2M389_1031_NFYIIVPPLTLNFVEHSISCK (UniProt Q2M389)”, the “probe-labelled cysteine peptide fold change” value is 0.0143 (10 µM) and 0.398 (50 µM).
For “VARS_P26640_41_ICLQPPPTSR (UniProt P26640)”, in that order: 0.0632 and -0.101.
As for “VPS11_Q9H270_231_VELDTHGCGLR (UniProt Q9H270)”, the “probe-labelled cysteine peptide fold change” value is, setting by setting: (10 µM) 0.123; (50 µM) 0.07.
Consider “VLDLR_P98155_97_CDGDPDCEDGSDESPEQCHMR (UniProt P98155)”, for which the “probe-labelled cysteine peptide fold change” value is, setting by setting: (10 µM) 0.0414; (50 µM) -0.483.
Turning to “VPS16_Q9H269_817_NEAELSLVLSHCTGATDGATADK (UniProt Q9H269)”, the “probe-labelled cysteine peptide fold change” value was 0.271 (10 µM) and 0.222 (50 µM).
The matching figures for “USP9Y_O00507_684_CLAENAVYLCDR (UniProt O00507)”: 0.0416 and 0.0594.
Turning to “VPS13C_Q709C8_1998_TCTLDDLR (UniProt Q709C8)”, the “probe-labelled cysteine peptide fold change” value was 0.104 (10 µM) and 0.414 (50 µM).
The matching figures for “VIRMA_Q69YN4_1170_SFSGTTCQPIQHMLR (UniProt Q69YN4)”: 0.014 and 0.0954.
